In the supplement of paper PMC12823440, “Inhibitors supercharge kinase turnover through native proteolytic circuits” (Nature, 2025):
Where a name gives a salt, the structure may show the parent alone. Some of the results follow. The calls rarely recur for the same compound in another form.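 Kinases were expressed as nanoluciferase fusions in K562 cells and luminescence was read every 4 h between 2 and 18 h as percent of control, DMSO set to 100% and a positive control to 0%. A time point counts as decreased when the signal drops significantly (2 sigma). The hit call is the authors' own, does not follow from the count of time points alone, and its rule is not shown.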

Amino acid sequences for entries named in this document (tags omitted).
UniProt O96017, whole entry: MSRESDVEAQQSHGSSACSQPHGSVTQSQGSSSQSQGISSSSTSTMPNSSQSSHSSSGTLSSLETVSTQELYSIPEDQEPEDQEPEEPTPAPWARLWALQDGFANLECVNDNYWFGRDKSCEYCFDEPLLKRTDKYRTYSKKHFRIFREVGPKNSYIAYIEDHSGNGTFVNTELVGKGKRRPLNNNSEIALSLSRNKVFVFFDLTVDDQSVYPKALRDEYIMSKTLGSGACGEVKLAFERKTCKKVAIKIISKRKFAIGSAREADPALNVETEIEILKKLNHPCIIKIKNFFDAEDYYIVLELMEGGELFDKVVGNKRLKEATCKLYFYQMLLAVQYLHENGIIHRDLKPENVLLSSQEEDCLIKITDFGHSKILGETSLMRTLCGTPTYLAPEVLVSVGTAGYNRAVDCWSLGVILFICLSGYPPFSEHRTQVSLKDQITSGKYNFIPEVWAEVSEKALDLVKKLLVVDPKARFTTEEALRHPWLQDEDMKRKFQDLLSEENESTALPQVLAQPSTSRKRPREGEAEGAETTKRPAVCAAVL
UniProt P07333, whole entry: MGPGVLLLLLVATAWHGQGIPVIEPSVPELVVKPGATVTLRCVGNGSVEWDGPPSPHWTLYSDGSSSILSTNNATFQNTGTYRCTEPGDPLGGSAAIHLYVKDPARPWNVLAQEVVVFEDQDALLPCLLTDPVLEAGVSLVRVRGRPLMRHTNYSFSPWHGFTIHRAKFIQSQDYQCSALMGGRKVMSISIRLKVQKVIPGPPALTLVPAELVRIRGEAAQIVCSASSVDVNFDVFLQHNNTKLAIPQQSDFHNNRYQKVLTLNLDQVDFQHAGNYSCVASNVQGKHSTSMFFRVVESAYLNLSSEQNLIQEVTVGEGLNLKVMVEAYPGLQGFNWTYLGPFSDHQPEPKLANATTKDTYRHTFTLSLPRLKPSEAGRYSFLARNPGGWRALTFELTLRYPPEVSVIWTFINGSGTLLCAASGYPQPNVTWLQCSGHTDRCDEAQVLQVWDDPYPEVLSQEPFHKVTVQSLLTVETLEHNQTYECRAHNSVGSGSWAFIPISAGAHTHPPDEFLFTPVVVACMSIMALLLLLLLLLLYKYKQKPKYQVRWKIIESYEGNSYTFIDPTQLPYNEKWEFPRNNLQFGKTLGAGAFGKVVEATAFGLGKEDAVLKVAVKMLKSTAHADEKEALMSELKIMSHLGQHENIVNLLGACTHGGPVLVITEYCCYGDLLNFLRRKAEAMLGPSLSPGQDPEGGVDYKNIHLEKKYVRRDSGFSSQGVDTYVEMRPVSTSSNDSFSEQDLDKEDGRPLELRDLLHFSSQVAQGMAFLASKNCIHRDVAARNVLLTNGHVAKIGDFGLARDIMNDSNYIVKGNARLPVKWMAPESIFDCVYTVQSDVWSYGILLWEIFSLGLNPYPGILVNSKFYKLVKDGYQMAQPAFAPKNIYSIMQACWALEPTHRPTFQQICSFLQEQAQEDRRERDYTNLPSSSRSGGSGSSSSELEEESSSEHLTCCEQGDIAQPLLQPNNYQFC

These compounds were tested against CHEK2 (UniProt O96017) (assay: kinase-Nluc reporter destabilization hit call (1 = scored as downregulated) (binary); higher = compound decreases kinase abundance). Conditions: K562; 2-18 h.

kinase-Nluc reporter destabilization hit call, inactive:
CN(C)CCOc1ccc(-c2nc(-c3ccncc3)c(-c3ccc4c(c3)CC/C4=N\O)[nH]2)cc1 (10 µM) 0
CCN(CCCOc1ccc2c(Nc3cc(CC(=O)Nc4cccc(F)c4)[nH]n3)ncnc2c1)CCOP(=O)(O)O [Barasertib] (10 µM) 0
C=CC(=O)N[C@H]1COC[C@H]1Nc1ncc2cc(-c3c(Cl)c(OC)cc(OC)c3Cl)c(=O)n(C)c2n1 (10 µM) 0

These compounds were tested against CSF1R (UniProt P07333) in the same assay as above. Conditions: K562; 2-18 h.

kinase-Nluc reporter destabilization hit call, inactive:
CC#CC(=O)N[C@H]1CCCN(c2c(F)cc(C(N)=O)c3[nH]c(C)c(C)c23)C1 [Branebrutinib] (10 µM) 0
O=C1NC(=NCc2cccs2)S/C1=C\c1ccc2ncccc2c1 (10 µM) 0
Cn1c(=O)n(-c2ccc(C(C)(C)C#N)cc2)c2c3cc(-c4cnc5ccccc5c4)ccc3ncc21 [Dactolisib (Tosylate)] (10 µM) 0
COC(=O)c1ccc2c(C(=Nc3ccc(N(C)C(=O)CN4CCN(C)CC4)cc3)c3ccccc3)c(O)[nH]c2c1 [Nintedanib] (2.5 µM) 0
COc1cc2ncnc(Nc3ccc(O)cc3)c2cc1OC (10 µM) 0
O=C(c1ccc(-c2ccc(Cl)cc2)o1)N(Cc1ccccn1)c1ccc(N2CCNCC2)cc1 [MK2-IN-1 (hydrochloride)] (10 µM) 0
CN1CCN(S(=O)(=O)c2ccc(-c3cnc(N)c(C(=O)Nc4cccnc4)n3)cc2)CC1 (10 µM) 0
CN(C)C[C@@H]1CCn2cc(c3ccccc32)C2=C(C(=O)NC2=O)c2cn(c3ccccc23)CCO1 [Ruboxistaurin (hydrochloride)] (10 µM) 0
COc1ccc(Oc2cc(NCCC(F)(F)F)c3ncc(-c4ccc(C(=O)NC5CC5)c(C)c4)n3n2)c(F)c1F (2.5 µM) 0
CCCCNc1ncc(-c2ccc(CN3CCOCC3)cn2)c(NC2CCC(O)CC2)n1 (stereo not given) (10 µM) 0
O=C(Nc1cc(C(F)(F)F)ccc1N1CCN(Cc2ccccn2)CC1)c1ccc(-c2ccncc2)o1 (10 µM) 0
CC(C)(/C=C(\C#N)C(=O)N1CCC[C@@H](n2nc(-c3ccc(Oc4ccccc4)cc3F)c3c(N)ncnc32)C1)N1CCN(C2COC2)CC1 (2.5 µM) 0
CNC(=O)c1cccc2cc(Oc3ccnc4cc(OCC5(N)CC5)c(OC)cc34)ccc12 [Lucitanib] (10 µM) 0
COc1cc(F)cc([C@@H](CO)NC(=O)[C@@H](C)N2Cc3ccc(-c4nc(NC5CCOCC5)ncc4Cl)cc3C2=O)c1 [ERK1/2 inhibitor 2] (10 µM) 0
O=c1cc(-c2ccccc2)oc2c(O)c(O)ccc12 [7,8-Dihydroxyflavone] (10 µM) 0
C=CC(=O)N1CC[C@H](n2nc(C#Cc3cc(OC)cc(OC)c3)c3c(N)ncnc32)C1 [Futibatinib] (10 µM) 0
O=C1Nc2ccccc2/C1=C/c1ccc(F)cc1 (10 µM) 0
CN(C)Cc1ccc(-c2cnn3c(-c4cccc(NC(=O)c5cccc(C(F)(F)F)c5)c4)ccnc23)cc1 (2.5 µM) 0
Cc1c[nH]c(/C=C2\C(=O)Nc3ccccc32)c1CCC(=O)O (10 µM) 0
CC(C)c1ccc2oc3nc(N)c(C(=O)O)cc3c(=O)c2c1 [Amlexanox] (10 µM) 0
NS(=O)(=O)c1ccc(Nc2nc(OCC3CCCCC3)c3[nH]cnc3n2)cc1 (10 µM) 0
Cn1nc(C(C)(C)C)cc1NC(=O)Nc1ccc(Oc2ccncc2)cc1 (10 µM) 0
COc1ccc(F)c(F)c1C(=O)c1cnc(NC2CCN(S(C)(=O)=O)CC2)nc1N (2.5 µM) 0
COc1cc(C(=O)NC2CCN(C)CC2)ccc1Nc1ncc2c(n1)N(C1CCCC1)CC(F)(F)C(=O)N2C (10 µM) 0
CCN1C(=O)N(c2c(F)c(OC)cc(OC)c2F)Cc2cnc3[nH]c(CN4CCOCC4)cc3c21 [Pemigatinib] (10 µM) 0
COc1cc(Oc2ccnc3cc(OC)c(OC)cc23)ccc1NC(=O)NC(C)c1nccs1 (stereo not given) (2.5 µM) 0
C=CC(=O)N1C[C@H](Nc2ncnc3[nH]ccc23)CC[C@@H]1C [Ritlecitinib] (10 µM) 0

At a glance, some entries already given:
kinase-Nluc reporter destabilization hit call, inactive:
O=c1cc(-c2ccccc2)oc2c(O)c(O)ccc12 [7,8-Dihydroxyflavone] (10 µM) 0
C=CC(=O)N1CC[C@H](n2nc(C#Cc3cc(OC)cc(OC)c3)c3c(N)ncnc32)C1 [Futibatinib] (10 µM) 0
